Source: PubChem BioAssay AID1508597 (Cure First, 2020)

Screen: 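Survival screen with siRNA in ovarian cancer cells derived from patients, with or without rucaparib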 (primary screen)
System: human ovarian carcinoma lines grown from tumours: OCI-P5x (papillary serous) and OCI-C5x (clear cell)
Knock-down reagent: siRNA pool against human genes, 1.25 pmol siRNA per well
Timing: 72 h or 96 h, depending on the cell culture
Treatment: rucaparib 20 µM (about IC30) or vehicle, present until read-out
Detection: 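Luminescent ATP-based viability assay read 72 or 96 h after transfection, depending on culture, given as normalised percent viability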
Reading the numbers: viability, normalised: higher = more viable cells remaining
Active means: 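Active when normalised viability falls below 80 percent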
Meaning of the calls: active = viability under 80%; inactive = viability 80% or more
Shown is one part, drawn at random, of about 2,100 reagents tested. 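Calls flag viability under 80% in either arm, not effects specific to rucaparib; the reference for percent is not stated.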 Not stated in the record: the 100% reference.

gene knocked down	rucaparib or vehicle	cell line	technical replicate	viability, normalised (%)	Call
DCLK2 (doublecortin like kinase 2)	Rucaparib	OCI-C5x (clear cell)	1	47.7	active
DCLK2 (doublecortin like kinase 2)	Rucaparib	OCI-C5x (clear cell)	2	46.5	active
DCLK2 (doublecortin like kinase 2)	Rucaparib	OCI-C5x (clear cell)	3	47.9	active
DCLK2 (doublecortin like kinase 2)	Rucaparib	OCI-P5x (serous)	1	80.5	inactive
DCLK2 (doublecortin like kinase 2)	Rucaparib	OCI-P5x (serous)	2	89.4	inactive
DCLK2 (doublecortin like kinase 2)	Rucaparib	OCI-P5x (serous)	3	83.9	inactive
DCLK2 (doublecortin like kinase 2)	Vehicle	OCI-C5x (clear cell)	1	59.8	active
DCLK2 (doublecortin like kinase 2)	Vehicle	OCI-C5x (clear cell)	2	60.7	active
DCLK2 (doublecortin like kinase 2)	Vehicle	OCI-C5x (clear cell)	3	56.2	active
DCLK2 (doublecortin like kinase 2)	Vehicle	OCI-P5x (serous)	1	73.2	active
DCLK2 (doublecortin like kinase 2)	Vehicle	OCI-P5x (serous)	2	61.9	active
DCLK2 (doublecortin like kinase 2)	Vehicle	OCI-P5x (serous)	3	70.2	active
CSNK1A1L (casein kinase 1 alpha 1 like)	Rucaparib	OCI-C5x (clear cell)	1	56	active
CSNK1A1L (casein kinase 1 alpha 1 like)	Rucaparib	OCI-C5x (clear cell)	2	56.6	active
CSNK1A1L (casein kinase 1 alpha 1 like)	Rucaparib	OCI-C5x (clear cell)	3	58.8	active
CSNK1A1L (casein kinase 1 alpha 1 like)	Rucaparib	OCI-P5x (serous)	1	61.2	active
CSNK1A1L (casein kinase 1 alpha 1 like)	Rucaparib	OCI-P5x (serous)	2	55.9	active
CSNK1A1L (casein kinase 1 alpha 1 like)	Rucaparib	OCI-P5x (serous)	3	59	active
CSNK1A1L (casein kinase 1 alpha 1 like)	Vehicle	OCI-C5x (clear cell)	1	74.3	active
CSNK1A1L (casein kinase 1 alpha 1 like)	Vehicle	OCI-C5x (clear cell)	2	48.8	active
CSNK1A1L (casein kinase 1 alpha 1 like)	Vehicle	OCI-C5x (clear cell)	3	51.5	active
CSNK1A1L (casein kinase 1 alpha 1 like)	Vehicle	OCI-P5x (serous)	1	58.5	active
CSNK1A1L (casein kinase 1 alpha 1 like)	Vehicle	OCI-P5x (serous)	2	81.2	inactive
CSNK1A1L (casein kinase 1 alpha 1 like)	Vehicle	OCI-P5x (serous)	3	63.5	active
